# Measurements as given in US8242144B2, “Stilbenes and chalcones for the prevention and treatment of cardiovascular diseases” (Resverlogix Corp., priority 2004, dated 2012).
# At least one compound was matched to its structure with a doubt left.
# System: human ApoA-I promoter
# Test: ApoA-I promoter induction in Caco-2 intestinal cells (pAI.474-Luc luciferase reporter)
# Format: cell-based
# Conditions: Caco-2 cells, luciferase activity vs untreated/control, average values at 15 μM, 48 hours incubation
# Protocol: Briefly, the promoter region of the gene encoding human ApoA-I was isolated and ligated upstream of the firefly luciferase gene to construct the reporter plasmid pAI.474-Luc. This reporter plasmid and pRSV-β-galactosidase (as a control for transfection efficiency) were co-transfected to Caco-2 cells. The Caco-2 cells were then incubated in a MEM selection media containing 20% fetal calf serum supplemented with G418 (final concentration: 0.5 mg/mL, Gibco) to give established strains that stably express from the reporter gene. […] Cells were starved for 24 hrs in MEM selection media containing 0.5% FBS. Then, a solution of a compound of the invention in DMSO or other appropriate solvent was added to the wells at a final concentration of 0 to 100 μM in MEM selection media containing 0.5% FBS.
# Measures of luciferase activity were normalized to lysate protein concentrations, measured using Bradford Reagent (BioRad Protein Assay reagent Cat#500-0006). The luciferase activity of cells treated with various concentrations of test compounds was compared to that of control sample (i.e., solvent without any compound of the present invention added) and untreated samples.
smiles,measurement,value
"Oc1ccc(/N=N/c2ccc(O)cc2)cc1 [Example 21, 4-(4-Hydroxy-phenyl)-azophenol]",ApoA-I Promoter Induction,increased
